The list shows only some results of the screen, not a fair sample: it is rich in T/C values a quarter to a half above the control, in often repeated tests (any T/C) and in doses without a T/C. Other doses and runs of a compound stand elsewhere. T/C gives the treated animals as a percentage of the vehicle group. Some doses have a count of surviving animals in place of a T/C: the source files T/C as zero there, which appears to mark a toxic dose or a test without result, not a measured value. Some doses without a T/C left all or most animals alive at the check, yet need not have been tolerated: the source hardly ever lists a survival T/C far under the control, and the zero likely stands for such cases as well. Survivors were counted at the toxicity check, usually on the fifth day, unless a day is given; later deaths do not show. Schedules are NCI's codes, read here as Q, the interval in days (D) or hours (H), X, the number of doses. Where survival is the endpoint, this PubChem deposit counts one and a half times the control or more as active, and values a quarter to a half above the control carry no call in these data; other NCI protocols may use other cut-offs. Counts like (3×) stand for listed records that agree. Some T/C values carry the count of animals alive at the toxicity check (mostly the fifth day); where none is given, no animal had died by that day.
Tested on: mice, LPC-1 plasma cell tumor ip, median survival T/C
Test: NCI In Vivo Anticancer Drug Screen. Data for tumor model Lieberman Plasma Cell No. 1 (LPC-1) (intraperitoneal) in unknown mice
Details: T/C endpoint: median survival time, higher T/C = longer survival
Experimental: The antitumor activity of compounds was measured in mice bearing transplantable tumors. Survival or tumor size were measured and the results are expressed as the measurement made in the treated group (T) divided by the measurement made in the vehicle treated control group (C). The tumor model used in this assay is Lieberman Plasma Cell No. 1 (LPC-1) (intraperitoneal) in unknown mice

[1] = dose: 1.8 mg/kg/injection, schedule: Q01DX028 (sc), vehicle: saline
[2] = dose: 50.0 mg/kg/injection, schedule: Q01DX028 (sc), vehicle: carboxymethylcellulose (CMC)
[3] = dose: 75.0 mg/kg/injection, schedule: Q01DX028 (sc), vehicle: carboxymethylcellulose (CMC)

Q: For `COC1CC=C2CCN3CCC4=C(CC(=O)OC4)C23C1` (stereo not given), which survivor count (dose: 0.5 mg/kg/injection, schedule: Q01DX028 (sc), vehicle: saline) is on record?
A: 3 of 8

Q: And the survivor count (dose: 1.0 mg/kg/injection, schedule: Q01DX028 (sc), vehicle: saline)?
A: 5 of 8

Q: And the survivor count (dose: 2.0 mg/kg/injection, schedule: Q01DX028 (sc), vehicle: saline)?
A: 3 of 8

Q: What about the survivor count (dose: 4.0 mg/kg/injection, schedule: Q01DX028 (sc), vehicle: saline) of the same molecule?
A: 4 of 8

Q: Which T/C (dose: 0.5 mg/kg/injection, schedule: Q01DX028 (sc), vehicle: methylcellulose (MC)) does the source give for `NC(Cc1ccc(N(CCCl)CCCl)cc1)C(=O)O` (stereo not given) here?
A: 129 % of control

Q: And the T/C (dose: 1.0 mg/kg/injection, schedule: Q01DX028 (sc), vehicle: methylcellulose (MC))?
A: 148 % of control

Q: What about the survivor count (dose: 16.0 mg/kg/injection, schedule: Q01DX028 (sc), vehicle: methylcellulose (MC)) of the same molecule?
A: 10 of 10

Q: Which T/C [1] does the source give for `O=NN(CCCl)C(=O)NCCCl` here?
A: 142 % of control (2×)

Q: And the T/C (dose: 14.0 mg/kg/injection, schedule: Q01DX028 (sc), vehicle: saline)?
A: 133 % of control

Q: Which survivor count [2] does the source give for `CS(=O)(=O)OCCN(CCOS(C)(=O)=O)c1ccccc1` here?
A: 7 of 8

Q: And the survivor count [3]?
A: 1 of 8

Q: Which T/C (dose: 100.0 mg/kg/injection, schedule: Q01DX028 (sc), vehicle: steroid suspending solution) does the source give for `CC1(C)CC(C)(c2ccc(O)cc2)c2ccccc2O1` (stereo not given) here?
A: 138 % of control

Q: With `Nc1nncs1` as the molecule, how does the survivor count (dose: 23.0 mg/kg/injection, schedule: Q01DX028 (sc), vehicle: saline) read?
A: 6 of 10

Q: What about the survivor count (dose: 35.0 mg/kg/injection, schedule: Q01DX028 (sc), vehicle: saline) of the same molecule?
A: 6 of 10

Q: And the survivor count (dose: 53.0 mg/kg/injection, schedule: Q01DX028 (sc), vehicle: saline)?
A: 3 of 10

Q: What about the survivor count (dose: 80.0 mg/kg/injection, schedule: Q01DX028 (sc), vehicle: saline) of the same molecule?
A: 0 of 10

Q: With `CC(C)=CCC/C(C)=C/Cc1cc2ccc(=O)oc2cc1O` as the molecule, how does the survivor count (dose: 6.25 mg/kg/injection, schedule: Q01DX028 (sc), vehicle: saline) read?
A: 5 of 8

Q: What about the survivor count (dose: 12.5 mg/kg/injection, schedule: Q01DX028 (sc), vehicle: saline) of the same molecule?
A: 3 of 8

Q: And the survivor count (dose: 25.0 mg/kg/injection, schedule: Q01DX028 (sc), vehicle: saline)?
A: 4 of 8

Q: What about the survivor count (dose: 50.0 mg/kg/injection, schedule: Q01DX028 (sc), vehicle: saline) of the same molecule?
A: 5 of 8

Q: What does the source list for `NC(Cc1c[nH]c2ccc(N(CCCl)CCCl)cc12)C(=O)O` (stereo not given)?
A: T/C (dose: 1.08 mg/kg/injection, schedule: Q01DX028 (sc), vehicle: acid diluted with saline): 128 % of control; survivor count (dose: 1.8 mg/kg/injection, schedule: Q01DX028 (sc), vehicle: methylcellulose (MC)): 10 of 10; survivor count (dose: 3.0 mg/kg/injection, schedule: Q01DX028 (sc), vehicle: methylcellulose (MC)): 10 of 10; survivor count (dose: 5.0 mg/kg/injection, schedule: Q01DX028 (sc), vehicle: methylcellulose (MC)): 10 of 10

Q: How did the T/C (dose: 1.3 mg/kg/injection, schedule: Q01DX028 (sc), vehicle: saline) turn out when `COC12C(COC(N)=O)C3=C(C(=O)C(C)=C(N)C3=O)N1CC1C2N1C` (stereo not given) was run?
A: 129 % of control

Q: Which survivor count (dose: 400.0 mg/kg/injection, schedule: Q01DX028 (sc), vehicle: saline) does the source give for `CNNCc1ccc(C(=O)NC(N)=O)cc1` here?
A: 7 of 12

Q: Which results are given for `CS(=O)(=O)OCCN(CCOS(C)(=O)=O)c1ccc(/C=N/Nc2ncnc3nc[nH]c23)cc1`?
A: T/C (dose: 24.0 mg/kg/injection, schedule: Q01DX028 (sc), vehicle: carboxymethylcellulose (CMC)): 142 % of control; T/C (dose: 40.0 mg/kg/injection, schedule: Q03HX056 (sc), vehicle: other): 147 % of control; T/C (dose: 120.0 mg/kg/injection, schedule: Q01DX028 (sc), vehicle: carboxymethylcellulose (CMC)): 141 % of control; T/C (dose: 120.0 mg/kg/injection, schedule: Q01DX028 (sc), vehicle: other): 125 % of control; T/C (dose: 180.0 mg/kg/injection, schedule: Q01DX028 (oral), vehicle: other): 127 % of control; T/C (dose: 180.0 mg/kg/injection, schedule: Q01DX028 (sc), vehicle: other): 144 % of control [7 of 8 alive]; T/C (dose: 270.0 mg/kg/injection, schedule: Q01DX028 (sc), vehicle: carboxymethylcellulose (CMC)): 138 % of control; T/C (dose: 540.0 mg/kg/injection, schedule: Q01DX028 (oral), vehicle: other): 133 % of control

Q: Which survivor count (dose: 108.0 mg/kg/injection, schedule: Q01DX028 (sc), vehicle: saline) does the source give for `O=C(O)c1[nH]c(=O)[nH]c(=O)c1F` here?
A: 10 of 10

Q: Which results are given for `CO[C@H](C(=O)[C@@H](O)[C@@H](C)O)[C@@H]1Cc2cc3cc(OC4CC(OC5CC(O)C(O)C(C)O5)C(O)C(C)O4)c(C)c(O)c3c(O)c2C(=O)[C@H]1OC1CC(OC2CC(OC3CC(C)(O)C(O)C(C)O3)C(O)C(C)O2)C(O)C(C)O1` (stereo not given in full)?
A: survivor count (dose: 0.6 mg/kg/injection, schedule: Q01DX028 (sc), vehicle: saline): 5 of 10; survivor count (dose: 0.8 mg/kg/injection, schedule: Q01DX028 (sc), vehicle: saline): 2 of 10

Q: For `O=NN(CCF)C(=O)NC1CCCCC1`, which T/C (dose: 22.0 mg/kg/injection, schedule: Q01DX028 (sc), vehicle: carboxymethylcellulose (CMC)) is on record?
A: 125 % of control [7 of 10 alive]

Q: What about the survivor count [2] of the same molecule?
A: 5 of 10

Q: What about the survivor count [3] of the same molecule?
A: 1 of 10

Q: What does the source list for `CC[C@H]1CN2CCc3cc(OC)c(OC)cc3[C@@H]2C[C@@H]1C[C@H]1NCCc2cc(OC)c(OC)cc21`?
A: survivor count (dose: 8.0 mg/kg/injection, schedule: Q01DX028 (sc), vehicle: saline): 8 of 8; survivor count (dose: 16.0 mg/kg/injection, schedule: Q01DX028 (sc), vehicle: saline): 6 of 6

Q: `OC(CBr)C(O)C(O)C(O)CBr` (stereo not given) was tested. Which T/C (dose: 250.0 mg/kg/injection, schedule: Q01DX028 (sc), vehicle: carboxymethylcellulose (CMC)) did it give?
A: 126 % of control [7 of 8 alive]

Q: How did the survivor count (dose: 39.0 mg/kg/injection, schedule: Q01DX015 (sc), vehicle: carboxymethylcellulose (CMC)) turn out when `Cc1cc(N(CCCl)CCCl)ccc1C=Nc1ccccc1-c1ccccc1` was run?
A: 6 of 10

Q: And the survivor count (dose: 65.0 mg/kg/injection, schedule: Q01DX015 (sc), vehicle: carboxymethylcellulose (CMC))?
A: 2 of 10

Q: What about the survivor count (dose: 108.0 mg/kg/injection, schedule: Q01DX015 (sc), vehicle: carboxymethylcellulose (CMC)) of the same molecule?
A: 3 of 10

Q: For `COc1cc2ncccc2c2cccnc12`, which survivor count (dose: 100.0 mg/kg/injection, schedule: Q01DX011 (sc), vehicle: saline) is on record?
A: 3 of 8

Q: What about the survivor count (dose: 200.0 mg/kg/injection, schedule: Q01DX011 (sc), vehicle: saline) of the same molecule?
A: 0 of 8

Q: What about the survivor count (dose: 400.0 mg/kg/injection, schedule: Q01DX011 (sc), vehicle: saline) of the same molecule?
A: 0 of 8

Q: Which T/C [1] does the source give for `CS(=O)(=O)OCCN(CCOS(C)(=O)=O)c1ccc(C=O)cc1` here?
A: 139 % of control
